Earlier results in patent US20040072211A1, “Methods for identifying ligands using waterlogsy NMR” (PHARMACIA & UPJOHN COMPANY, priority 2002, published 2004).

Protein sequences, listed by entry. Tags and fused reporters are not part of them. Residues count along the entry.
UniProt P02768, 25-609: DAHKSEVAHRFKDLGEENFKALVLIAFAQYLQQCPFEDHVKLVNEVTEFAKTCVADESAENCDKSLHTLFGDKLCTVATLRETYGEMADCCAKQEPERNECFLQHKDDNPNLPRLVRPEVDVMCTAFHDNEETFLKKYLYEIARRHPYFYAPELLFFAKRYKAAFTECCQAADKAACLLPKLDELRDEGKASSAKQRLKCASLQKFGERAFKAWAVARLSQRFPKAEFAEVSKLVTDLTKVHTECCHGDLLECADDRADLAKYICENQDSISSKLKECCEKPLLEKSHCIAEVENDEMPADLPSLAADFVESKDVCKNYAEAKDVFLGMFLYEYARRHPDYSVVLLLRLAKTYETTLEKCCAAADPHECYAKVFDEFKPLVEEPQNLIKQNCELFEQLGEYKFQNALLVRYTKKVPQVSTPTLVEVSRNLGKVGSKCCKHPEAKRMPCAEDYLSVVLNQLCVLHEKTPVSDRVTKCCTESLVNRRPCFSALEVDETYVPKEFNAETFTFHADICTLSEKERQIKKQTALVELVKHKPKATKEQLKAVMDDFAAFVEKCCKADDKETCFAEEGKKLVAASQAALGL

Target: Human Serum Albumin (HSA) site II (Homo sapiens, UniProt P02768)
Conditions: literature knowledge; cited from earlier work

COc1ccc2cc([C@H](C)C(=O)O)ccc2c1 [naproxen]
Binding site on HSA: bind to HSA on site II
